Reference: PubChem BioAssay AID1224828 (NIAID, 2016)

Purpose: 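Knock-downs that increase or decrease LPS-induced p65 nuclear translocation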 (primary screen)
Cells: mouse RAW264.7 G9 macrophage reporter cells (GFP-p65, Tnf promoter-mCherry)
Reagent: siRNA pool against mouse genes, 100 nM
Duration: 2 days siRNA transfection, then 40 min LPS before fixation
Conditions: LPS (Salmonella minnesota R595) at 10 ng/ml
Measured: 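Microscopy ratio of nuclear to perinuclear-ring GFP-p65 signal, scaled to the plate median; gene score is the average of two replicate robust z-scores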
Direction: p65 translocation robust z-score: higher = more nuclear NF-kappaB p65 after LPS than the plate median; nuclear/cytoplasmic p65 ratio: higher = more nuclear NF-kappaB p65
Active means: 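Called active when z exceeds 3.3 or falls under -1.56 (median of Tlr4 controls), giving activity score of at least 50; no calls for control wells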
Calls: active = hit (p65 shift raised or lowered); inactive = no clear change
Shown is a random part of about 17,000 reagents. 762 of them (4.5%) count as active. 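Active calls include both raised and lowered p65 entry, mostly lowered; wells with fewer than 50 cells lack a z-score.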 The raw values are shown without normalisation. The numbers tell different reagents against one gene apart.

gene,reagent,p65 translocation robust z-score,"nuclear/cytoplasmic p65 ratio, rep 1","nuclear/cytoplasmic p65 ratio, rep 2",low cell count flag,Outcome
Fam76b,1,1.84,1.51,1.27,enough cells to score,inactive
Fam107b,1,,1.3,1.38,fewer than 50 cells per well; well left out of scoring,inactive
Themis,1,-1.17,1.3,1.04,enough cells to score,inactive
Ccdc25,1,,1.37,1.35,fewer than 50 cells per well; well left out of scoring,inactive
Mterf1a,1,-0.5,1.56,1.52,enough cells to score,inactive
Lancl2,1,1.36,1.65,1.7,enough cells to score,inactive
Mrfap1,1,-0.89,1.32,1.4,enough cells to score,inactive
Gmps,1,-0.94,1.28,1.28,enough cells to score,inactive
Chad,1,-1.51,1.33,1.57,enough cells to score,inactive
Prkag1,1,-0.13,1.67,1.44,enough cells to score,inactive
Gprin3,1,1.95,1.83,2.16,enough cells to score,inactive
Zfp647,1,,1.18,1.49,fewer than 50 cells per well; well left out of scoring,inactive
Gda,1,-0.15,1.6,1.42,enough cells to score,inactive
Tcerg1,1,-0.04,1.54,1.49,enough cells to score,inactive
Vps13c,1,1.7,1.85,1.76,enough cells to score,inactive
Syngr1,1,0.24,1.5,1.13,enough cells to score,inactive
Clk1,1,1.54,1.75,2.12,enough cells to score,inactive
Pes1,1,-1.27,1.27,1.25,enough cells to score,inactive
Xirp1,1,-0.12,1.58,1.76,enough cells to score,inactive
Zfp940,1,-0.99,1.49,1.6,enough cells to score,inactive
Atp13a2,1,0.17,1.63,1.64,enough cells to score,inactive
Ddx17,1,,1.36,1.53,fewer than 50 cells per well; well left out of scoring,inactive
Pdzd7,1,0.91,1.55,1.68,enough cells to score,inactive
Spinkl,1,0.79,1.48,1.71,enough cells to score,inactive
Ttc28,1,2.43,1.97,2.06,enough cells to score,inactive
Or4k6,1,0.05,1.45,1.16,enough cells to score,inactive
9630028B13Rik,1,,1.3,1.54,fewer than 50 cells per well; well left out of scoring,inactive
Fmnl3,1,1.62,1.81,1.7,enough cells to score,inactive
Pak4,1,,1.72,1.18,fewer than 50 cells per well; well left out of scoring,inactive
Ankrd16,1,-0.69,1.35,1.57,enough cells to score,inactive
Flad1,1,-0.87,1.35,1.41,enough cells to score,inactive
Ikbip,1,-0.37,1.31,1.41,enough cells to score,inactive
Ikbip,2,0.9,1.57,1.48,enough cells to score,inactive
Morc2a,1,0.69,1.55,1.29,enough cells to score,inactive
Anks1,1,0.27,1.48,1.89,enough cells to score,inactive
Hao2,1,1.15,1.94,1.59,enough cells to score,inactive
Eps15l1,1,-1.09,1.3,1.24,enough cells to score,inactive
Rpn1,1,,1.68,1.25,fewer than 50 cells per well; well left out of scoring,inactive
Ddx50,1,0.3,1.65,1.56,enough cells to score,inactive
Nudt13,1,-0.57,1.62,1.45,enough cells to score,inactive

Part of the list above, set out differently.
gene | reagent | p65 translocation robust z-score | nuclear/cytoplasmic p65 ratio, rep 1 | nuclear/cytoplasmic p65 ratio, rep 2 | low cell count flag | Outcome
Gda | 1 | -0.15 | 1.6 | 1.42 | enough cells to score | inactive
Tcerg1 | 1 | -0.04 | 1.54 | 1.49 | enough cells to score | inactive
